The chains behind the UniProt entries cited, without tags or fusion partners. Where a name states a change or a piece, a line headed by the entry shows the natural chain unless it says otherwise.
UniProt P54823: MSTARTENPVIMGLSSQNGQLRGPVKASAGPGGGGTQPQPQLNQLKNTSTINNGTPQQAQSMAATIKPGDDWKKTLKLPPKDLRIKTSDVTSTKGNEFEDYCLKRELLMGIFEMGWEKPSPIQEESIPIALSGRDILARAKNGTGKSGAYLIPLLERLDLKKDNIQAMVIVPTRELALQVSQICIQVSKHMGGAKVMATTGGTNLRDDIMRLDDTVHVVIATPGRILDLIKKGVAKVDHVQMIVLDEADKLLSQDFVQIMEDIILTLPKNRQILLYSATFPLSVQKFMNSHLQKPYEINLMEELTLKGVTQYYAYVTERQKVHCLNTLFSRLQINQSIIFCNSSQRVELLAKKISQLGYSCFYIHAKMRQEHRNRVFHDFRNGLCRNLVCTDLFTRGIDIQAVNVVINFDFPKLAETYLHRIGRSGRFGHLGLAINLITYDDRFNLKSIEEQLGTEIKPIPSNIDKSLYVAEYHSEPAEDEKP

In publication PMC12418388:

Biological target: DDX6^Mut6 of the co-IP of Supplementary Fig. S6B (UniProt P54823)
Assay: co-IP; co-IP of wild-type, truncated and mutant DDX6 proteins (Supplementary Fig. S6A, B); cells not given; western blot

binding: binds
B1: EDC3 (protein, UniProt Q8K2D3 1-508)
chain: MAMDWLGSIVSINCGDSLGVYQGRVSAVDQVSQTISLTRPFHNGVKCLVPEVTFRAGDITELKILEIPGPGDNQQVGDLHQTELGPSGVGYQMSISQNGTGKVVKKPASSSSAPQSIPKRTDVKSQDVAISPQQQQCSKSYVDRHMESLSQSKSFRRRHNSWSSSSRHPNQATPKKSGLKNGQMKNKDDECFGDDIEELPDTDFDFEGNLALFDKAAVFEEIDTYERRSGSRSRGVPNERPARYRHDENILESEPIVYRRITVPHSVSKEFCTDSGLVVPSVSYELHKKLLSVAEKHGLTLERRLEMTGVCASQMALTLLGGPNRLNPKNVHQRPTVALLCGPHVKGAQGISCGRHLANHDVQVILFLPNFVKMLESITNELSLFSKTQGQQVSSLRDLPASPVDLVINCLDCPENAFLRDQPWYKAAVAWANQNRAPVLSIDPPVHEVEQGIDAKWSLALGLPLPLGEHAGRVYLCDIGIPQQVFQEVGINYHSPFGCKFVIPLHSA

Results are given in words; binding and its absence hold for the method and conditions named. In cells and extracts the contact can be indirect. Binding calls can cover weak binding; strength is not graded here.
